This is one part of the list.
Assays:
Test in all cases: log2 fold change, soluble protein after heating vs DMSO (PISA); higher = thermal stabilisation; K562 cells, 10 uM, 30 min; active = over 0.2 and 3.5 SD of the protein, either way, in both replicates (recomputed)
[1] = compound: CN1CCN(CCOc2cc(OC3CCOCC3)c3c(Nc4c(Cl)ccc5c4OCO5)ncnc3c2)CC1 [saracatinib]
Procedure, shortened: (§1)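 Thermal stability values are relative to control samples and come from duplicates. They are expressed as log2 fold changes. For measurement, K562 cells (2×10^6 cells/mL) received 10 μM compound for 30 min, and aliquots were heated for 3 min over 48°C-58°C, pooled, and extracted at 4°C in PBS with 0.5% NP-40. Soluble protein, the supernatant after 21,000xg for 90 min, was quantified by TMTpro 16plex LC-MS/MS with equalised channel sums.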

Protein sequences, listed by entry. Tags and fused reporters are not part of them. Lines headed by an entry give the natural chain unless they say otherwise; changes in a name come on top.
UniProt Q9BV81: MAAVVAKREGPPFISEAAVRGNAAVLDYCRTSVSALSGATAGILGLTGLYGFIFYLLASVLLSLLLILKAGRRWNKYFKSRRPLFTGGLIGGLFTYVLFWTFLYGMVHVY
UniProt Q5J8M3, whole entry, looked up: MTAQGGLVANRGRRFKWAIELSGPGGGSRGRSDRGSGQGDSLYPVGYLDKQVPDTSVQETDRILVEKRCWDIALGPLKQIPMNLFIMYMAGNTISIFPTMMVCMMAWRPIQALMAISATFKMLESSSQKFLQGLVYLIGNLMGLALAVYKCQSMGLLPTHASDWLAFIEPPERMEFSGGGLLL
UniProt P19525: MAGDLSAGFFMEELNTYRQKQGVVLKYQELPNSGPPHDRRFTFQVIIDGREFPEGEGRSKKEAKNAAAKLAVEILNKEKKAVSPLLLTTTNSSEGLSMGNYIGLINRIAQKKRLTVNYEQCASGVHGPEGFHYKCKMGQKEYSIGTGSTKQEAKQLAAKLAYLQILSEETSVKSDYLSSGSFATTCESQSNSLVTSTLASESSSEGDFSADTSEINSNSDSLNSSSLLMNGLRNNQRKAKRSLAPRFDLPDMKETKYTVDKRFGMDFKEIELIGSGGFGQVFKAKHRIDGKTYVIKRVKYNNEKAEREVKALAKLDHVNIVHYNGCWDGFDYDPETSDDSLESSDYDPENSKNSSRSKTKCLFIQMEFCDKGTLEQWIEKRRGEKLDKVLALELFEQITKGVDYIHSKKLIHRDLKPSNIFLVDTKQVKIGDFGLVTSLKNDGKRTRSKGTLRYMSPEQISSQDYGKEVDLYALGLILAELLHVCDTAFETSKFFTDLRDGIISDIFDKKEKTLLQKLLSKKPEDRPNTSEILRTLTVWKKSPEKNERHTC
UniProt O75821, whole entry, looked up: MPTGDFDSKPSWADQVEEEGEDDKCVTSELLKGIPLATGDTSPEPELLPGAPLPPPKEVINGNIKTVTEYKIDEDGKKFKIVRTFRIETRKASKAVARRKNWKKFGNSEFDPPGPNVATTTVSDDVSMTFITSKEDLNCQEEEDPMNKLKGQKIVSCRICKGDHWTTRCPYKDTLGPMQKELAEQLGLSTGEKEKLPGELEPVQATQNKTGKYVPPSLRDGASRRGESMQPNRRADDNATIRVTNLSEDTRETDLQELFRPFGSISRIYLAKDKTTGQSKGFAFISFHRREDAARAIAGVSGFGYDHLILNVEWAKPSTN
UniProt P23588, whole entry, looked up: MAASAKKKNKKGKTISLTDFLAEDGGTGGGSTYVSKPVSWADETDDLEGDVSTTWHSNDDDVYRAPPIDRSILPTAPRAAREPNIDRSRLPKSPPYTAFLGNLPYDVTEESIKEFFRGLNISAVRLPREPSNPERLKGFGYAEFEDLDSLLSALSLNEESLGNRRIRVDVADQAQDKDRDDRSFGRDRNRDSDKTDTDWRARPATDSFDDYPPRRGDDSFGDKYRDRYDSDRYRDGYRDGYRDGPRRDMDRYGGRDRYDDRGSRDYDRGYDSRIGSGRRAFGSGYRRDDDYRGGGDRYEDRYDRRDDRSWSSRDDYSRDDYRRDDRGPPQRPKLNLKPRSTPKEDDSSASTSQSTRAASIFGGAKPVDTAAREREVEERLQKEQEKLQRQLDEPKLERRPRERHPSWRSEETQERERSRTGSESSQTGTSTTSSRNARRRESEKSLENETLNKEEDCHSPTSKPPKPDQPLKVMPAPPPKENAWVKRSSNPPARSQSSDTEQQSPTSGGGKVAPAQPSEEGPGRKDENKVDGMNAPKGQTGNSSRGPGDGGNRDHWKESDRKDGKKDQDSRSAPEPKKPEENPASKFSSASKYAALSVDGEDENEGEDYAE
UniProt P09104, whole entry, looked up: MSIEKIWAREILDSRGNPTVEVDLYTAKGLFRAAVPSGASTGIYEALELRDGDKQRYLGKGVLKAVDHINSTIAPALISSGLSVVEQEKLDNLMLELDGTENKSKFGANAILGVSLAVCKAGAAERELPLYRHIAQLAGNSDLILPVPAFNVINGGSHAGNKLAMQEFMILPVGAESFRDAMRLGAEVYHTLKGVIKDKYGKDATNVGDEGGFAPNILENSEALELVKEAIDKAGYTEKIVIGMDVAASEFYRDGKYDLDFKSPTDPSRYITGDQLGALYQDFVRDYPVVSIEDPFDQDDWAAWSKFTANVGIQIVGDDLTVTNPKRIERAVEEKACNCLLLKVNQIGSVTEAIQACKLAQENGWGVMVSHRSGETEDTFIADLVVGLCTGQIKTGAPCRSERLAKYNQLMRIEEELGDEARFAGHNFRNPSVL
UniProt O94919: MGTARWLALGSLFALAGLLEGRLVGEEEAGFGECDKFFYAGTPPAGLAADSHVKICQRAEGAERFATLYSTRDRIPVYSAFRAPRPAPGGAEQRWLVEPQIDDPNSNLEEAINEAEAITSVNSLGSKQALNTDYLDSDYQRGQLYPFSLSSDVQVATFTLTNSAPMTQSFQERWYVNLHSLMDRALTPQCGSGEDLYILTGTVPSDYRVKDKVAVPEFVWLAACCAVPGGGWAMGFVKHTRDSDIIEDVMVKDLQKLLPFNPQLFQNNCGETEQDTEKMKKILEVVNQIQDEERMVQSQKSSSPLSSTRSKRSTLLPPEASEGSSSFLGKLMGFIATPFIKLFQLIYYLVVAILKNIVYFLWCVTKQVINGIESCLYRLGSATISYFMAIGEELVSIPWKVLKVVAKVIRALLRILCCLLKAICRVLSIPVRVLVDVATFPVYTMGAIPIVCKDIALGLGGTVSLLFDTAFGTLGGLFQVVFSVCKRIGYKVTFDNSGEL
UniProt Q9NR50: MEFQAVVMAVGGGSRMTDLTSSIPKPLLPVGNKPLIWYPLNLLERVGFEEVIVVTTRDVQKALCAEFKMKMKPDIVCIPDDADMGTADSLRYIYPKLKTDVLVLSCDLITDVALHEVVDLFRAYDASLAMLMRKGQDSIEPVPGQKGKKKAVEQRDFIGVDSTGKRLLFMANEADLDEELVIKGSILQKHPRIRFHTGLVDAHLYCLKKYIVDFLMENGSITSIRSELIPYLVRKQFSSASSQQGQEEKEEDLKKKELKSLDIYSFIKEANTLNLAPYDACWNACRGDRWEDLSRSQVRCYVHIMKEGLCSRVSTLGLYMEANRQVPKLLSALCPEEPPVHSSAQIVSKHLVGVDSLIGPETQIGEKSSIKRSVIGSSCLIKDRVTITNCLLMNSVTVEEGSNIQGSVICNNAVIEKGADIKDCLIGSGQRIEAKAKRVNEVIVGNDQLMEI
UniProt P98172: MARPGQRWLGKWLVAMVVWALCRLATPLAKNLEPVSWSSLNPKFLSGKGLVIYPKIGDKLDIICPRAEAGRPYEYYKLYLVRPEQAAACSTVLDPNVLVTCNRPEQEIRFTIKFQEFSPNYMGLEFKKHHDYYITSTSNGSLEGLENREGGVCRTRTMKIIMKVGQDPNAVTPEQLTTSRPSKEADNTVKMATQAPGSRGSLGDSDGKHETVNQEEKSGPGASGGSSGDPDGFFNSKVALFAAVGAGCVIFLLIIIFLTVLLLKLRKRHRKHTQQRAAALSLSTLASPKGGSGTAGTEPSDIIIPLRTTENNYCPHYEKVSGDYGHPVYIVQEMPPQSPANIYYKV
UniProt O75356: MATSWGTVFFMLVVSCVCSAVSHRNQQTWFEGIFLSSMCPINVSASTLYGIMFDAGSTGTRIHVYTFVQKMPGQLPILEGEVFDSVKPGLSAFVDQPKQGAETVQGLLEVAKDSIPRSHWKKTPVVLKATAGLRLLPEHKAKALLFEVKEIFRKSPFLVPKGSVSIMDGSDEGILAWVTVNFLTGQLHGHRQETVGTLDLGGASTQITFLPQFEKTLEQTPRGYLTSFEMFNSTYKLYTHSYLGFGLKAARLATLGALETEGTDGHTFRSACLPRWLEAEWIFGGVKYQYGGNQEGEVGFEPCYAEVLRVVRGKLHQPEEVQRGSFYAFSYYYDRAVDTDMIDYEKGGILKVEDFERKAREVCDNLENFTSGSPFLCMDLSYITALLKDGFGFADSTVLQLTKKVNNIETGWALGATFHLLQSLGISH
UniProt Q96C19: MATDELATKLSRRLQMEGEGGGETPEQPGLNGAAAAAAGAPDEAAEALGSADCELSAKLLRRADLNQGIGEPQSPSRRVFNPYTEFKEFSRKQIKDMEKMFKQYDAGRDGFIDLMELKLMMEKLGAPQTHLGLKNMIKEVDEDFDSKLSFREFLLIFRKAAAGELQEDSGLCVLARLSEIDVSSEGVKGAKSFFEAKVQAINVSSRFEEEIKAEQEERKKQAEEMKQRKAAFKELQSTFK
UniProt Q96EB1: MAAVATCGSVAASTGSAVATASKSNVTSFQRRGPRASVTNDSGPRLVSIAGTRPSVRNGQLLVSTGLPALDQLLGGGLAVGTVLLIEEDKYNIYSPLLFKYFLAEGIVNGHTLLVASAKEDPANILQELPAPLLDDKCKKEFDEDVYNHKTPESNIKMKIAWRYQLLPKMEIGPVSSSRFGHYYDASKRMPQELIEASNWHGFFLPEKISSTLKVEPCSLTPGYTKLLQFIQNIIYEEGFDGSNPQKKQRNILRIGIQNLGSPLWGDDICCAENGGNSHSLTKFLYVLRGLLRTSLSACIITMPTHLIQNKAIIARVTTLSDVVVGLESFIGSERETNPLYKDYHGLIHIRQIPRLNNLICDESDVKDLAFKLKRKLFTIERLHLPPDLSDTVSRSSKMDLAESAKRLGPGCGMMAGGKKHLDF
UniProt Q8TE02: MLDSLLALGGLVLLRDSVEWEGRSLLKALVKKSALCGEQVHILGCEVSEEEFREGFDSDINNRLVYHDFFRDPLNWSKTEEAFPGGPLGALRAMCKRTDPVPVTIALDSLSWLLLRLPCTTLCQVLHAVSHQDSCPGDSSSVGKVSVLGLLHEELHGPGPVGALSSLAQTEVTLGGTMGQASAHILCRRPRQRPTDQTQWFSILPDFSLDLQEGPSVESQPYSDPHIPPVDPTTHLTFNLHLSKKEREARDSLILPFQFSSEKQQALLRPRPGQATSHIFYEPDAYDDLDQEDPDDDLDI
UniProt O00303, whole entry, looked up: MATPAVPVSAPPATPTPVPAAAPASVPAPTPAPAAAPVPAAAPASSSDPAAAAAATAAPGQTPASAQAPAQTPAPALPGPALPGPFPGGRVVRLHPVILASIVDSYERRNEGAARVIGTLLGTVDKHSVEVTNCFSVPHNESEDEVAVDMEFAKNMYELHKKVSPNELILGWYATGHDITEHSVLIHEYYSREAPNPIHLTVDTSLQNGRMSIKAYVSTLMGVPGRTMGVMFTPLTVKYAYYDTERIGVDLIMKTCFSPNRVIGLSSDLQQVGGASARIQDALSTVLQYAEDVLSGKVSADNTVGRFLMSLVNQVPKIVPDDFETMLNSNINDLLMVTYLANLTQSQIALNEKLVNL
UniProt P63241: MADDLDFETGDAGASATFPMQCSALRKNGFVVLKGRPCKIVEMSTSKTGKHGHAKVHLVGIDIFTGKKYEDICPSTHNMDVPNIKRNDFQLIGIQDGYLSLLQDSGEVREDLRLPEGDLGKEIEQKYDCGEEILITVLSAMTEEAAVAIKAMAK
UniProt Q9UBQ5, whole entry, looked up: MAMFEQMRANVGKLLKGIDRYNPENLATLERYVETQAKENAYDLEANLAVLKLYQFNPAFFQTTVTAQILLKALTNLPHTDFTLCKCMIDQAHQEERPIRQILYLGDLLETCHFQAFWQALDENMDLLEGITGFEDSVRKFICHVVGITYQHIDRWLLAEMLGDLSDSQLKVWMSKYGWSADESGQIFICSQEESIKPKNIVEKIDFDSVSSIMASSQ
UniProt Q14232, whole entry, looked up: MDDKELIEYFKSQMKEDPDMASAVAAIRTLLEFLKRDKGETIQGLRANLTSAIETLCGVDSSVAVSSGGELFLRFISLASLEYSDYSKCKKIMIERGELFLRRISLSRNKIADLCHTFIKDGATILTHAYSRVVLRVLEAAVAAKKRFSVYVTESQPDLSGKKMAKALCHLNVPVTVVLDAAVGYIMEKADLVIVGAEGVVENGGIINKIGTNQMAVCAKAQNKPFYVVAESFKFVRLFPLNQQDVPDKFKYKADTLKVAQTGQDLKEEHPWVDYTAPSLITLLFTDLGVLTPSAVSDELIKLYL
UniProt O43768: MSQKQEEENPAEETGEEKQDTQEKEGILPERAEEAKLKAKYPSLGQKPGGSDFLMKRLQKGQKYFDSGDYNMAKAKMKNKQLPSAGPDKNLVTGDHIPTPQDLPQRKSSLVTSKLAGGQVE

[2] = compound: CN1CCN(c2nc(C3=C(c4c[nH]c5ccccc45)C(=O)NC3=O)c3ccccc3n2)CC1 [sotrastaurin]
Procedure, shortened: as §1

[3] = compound: CN1CC[C@H](c2c(O)cc(O)c3c(=O)cc(-c4ccccc4Cl)oc23)[C@H](O)C1 [alvocidib]
Procedure, shortened: as §1

[4] = compound: CN1CCc2c(c3ccccc3n2Cc2ccc(C(=O)NO)cc2)C1 [Tubastatin A]
Procedure, shortened: as §1

[5] = compound: CNC(=O)C1=CC=CC=C1NC2=NC(=NC=C2Cl)NC3=C(C=C(C=C3)N4CCOCC4)OC
Procedure, shortened: as §1

[6] = compound: CNC(=O)c1ccc(Nc2ncc(C(F)(F)F)c(NCc3nccnc3N(C)S(C)(=O)=O)n2)cc1 [defactinib]
Procedure, shortened: as §1

[7] = compound: CNCc1ccc(-c2[nH]c3cc(F)cc4c3c2CCNC4=O)cc1 [rucaparib]
Procedure, shortened: as §1

[8] = compound: CNc1nc(-c2ccc3c(N)n[nH]c3c2)cc(N2C[C@@H](C(=O)NC3CCCCC3)CC[C@H]2C)n1
Procedure, shortened: as §1

[9] = compound: COC(=O)N[C@@H](C)CNc1nccc(-c2cn(C(C)C)nc2-c2cc(Cl)cc(NS(C)(=O)=O)c2F)n1 [encorafenib]
Procedure, shortened: as §1

[10] = compound: COC(=O)[C@H](CCSC)NC(=O)C1=C(C=C(C=C1)NC[C@H](CS)N)C2=CC=CC=C2
Procedure, shortened: as §1

Measured: log2 fold change

EMC6 (UniProt Q9BV81)
inactive: [1] 0.1 | [2] -0.014 | [3] -0.032 | [4] 0.017 | [5] 0.04 | [6] 0.007 | [7] -0.058 | [8] -0.02 | [9] 0.007 | [10] -0.181

EP300 (UniProt Q09472)
inactive: [1] 0.011 | [2] 0.039 | [3] -0.102 | [4] 0.043 | [5] -0.071 | [6] -0.044 | [7] -0.021 | [8] 0.058 | [9] -0.038 | [10] -0.037

EMC4 (UniProt Q5J8M3)
inactive: [1] 0.083 | [2] 0.035 | [3] -0.031 | [4] 0.005 | [5] 0.018 | [6] -0.1 | [7] -0.044 | [8] -0.03 | [9] 0.019 | [10] -0.002

EIF2AK2 (UniProt P19525)
inactive: [1] -0.099 | [2] -0.344 | [3] 0.176 | [4] 0.145 | [5] 0.012 | [6] 0.3 | [7] 0.639 | [8] 0.13 | [9] 0.233 | [10] 0.114

EIF4H (UniProt Q15056)
inactive: [1] 0.002 | [2] -0.013 | [3] -0.072 | [4] -0.01 | [5] -0.009 | [6] -0.057 | [7] -0.009 | [8] 0.011 | [9] -0.034 | [10] 0.044

EIF3G (UniProt O75821)
inactive: [1] -0.068 | [2] -0.08 | [3] -0.026 | [4] -0.02 | [5] -0.043 | [6] -0.034 | [7] 0.071 | [8] 0.032 | [9] 0.039 | [10] -0.017

EIF4B (UniProt P23588)
inactive: [1] 0.011 | [2] 0.03 | [3] -0.023 | [4] -0.013 | [5] -0.021 | [6] -0.014 | [7] 0.006 | [8] -0.027 | [9] -0.034 | [10] 0.022

ENO2 (UniProt P09104)
inactive: [1] 0.052 | [2] 0.041 | [3] -0.017 | [4] -0.008 | [5] -0.066 | [6] -0.002 | [7] 0.011 | [8] -0.031 | [9] -0.023 | [10] 0.013

EIF2B2 (UniProt P49770)
inactive: [1] -0.023 | [2] 0.024 | [3] 0 | [4] 0.045 | [5] 0.063 | [6] 0.02 | [7] 0.051 | [8] 0.024 | [9] 0.051 | [10] -0.049

ENDOD1 (UniProt O94919)
inactive: [1] 0.039 | [2] 0.042 | [3] 0.049 | [4] -0.05 | [5] -0.014 | [6] -0.029 | [7] 0.053 | [8] -0.104 | [9] -0.034 | [10] 0.035

EIF2B3 (UniProt Q9NR50)
inactive: [1] -0.011 | [2] -0.042 | [3] -0.047 | [4] 0.045 | [5] -0.013 | [6] 0.044 | [7] 0.134 | [8] 0.082 | [9] 0.119 | [10] -0.017

EIF4A3 (UniProt P38919)
inactive: [1] -0.041 | [2] 0.023 | [3] 0.037 | [4] -0.015 | [5] 0.033 | [6] 0.006 | [7] -0.019 | [8] -0.011 | [9] 0.032 | [10] -0.001

EFNB1 (UniProt P98172)
inactive: [1] -0.156 | [2] -0.242 | [3] -0.158 | [4] -0.049 | [5] -0.004 | [6] -0.085 | [7] -0.107 | [8] 0 | [9] -0.029 | [10] 0.009

ENTPD5 (UniProt O75356)
inactive: [1] -0.005 | [2] 0.032 | [3] -0.287 | [4] -0.082 | [5] 0.015 | [6] -0.046 | [7] -0.038 | [8] 0.043 | [9] 0.043 | [10] 0.019

EIF3H (UniProt O15372)
inactive: [1] -0.027 | [2] -0.063 | [3] 0.005 | [4] 0.014 | [5] 0.01 | [6] -0.018 | [7] 0.078 | [8] -0.014 | [9] 0.061 | [10] -0.062

EEF2 (UniProt P13639)
inactive: [1] 0.031 | [2] 0.011 | [3] -0.009 | [4] -0.032 | [5] -0.028 | [6] 0.014 | [7] -0.033 | [8] -0.029 | [9] -0.013 | [10] 0.036

EIF2A (UniProt Q9BY44)
inactive: [1] -0.032 | [2] -0.029 | [3] 0.074 | [4] 0.024 | [5] 0.045 | [6] 0.08 | [7] 0.09 | [8] 0.018 | [9] 0.033 | [10] 0.022

EIF6 (UniProt P56537)
inactive: [1] 0.05 | [2] 0.018 | [3] 0.059 | [4] -0.003 | [5] -0.031 | [6] 0.04 | [7] 0.01 | [8] -0.03 | [9] -0.023 | [10] 0.051

EFHD2 (UniProt Q96C19)
inactive: [1] 0.03 | [2] -0.041 | [3] 0.037 | [4] 0.023 | [5] 0.114 | [6] -0.018 | [7] -0.083 | [8] -0.119 | [9] 0.07 | [10] -0.049

EMC1 (UniProt Q8N766)
inactive: [1] 0.045 | [2] 0.01 | [3] -0.015 | [4] 0 | [5] 0.013 | [6] -0.028 | [7] -0.02 | [8] -0.015 | [9] 0.056 | [10] -0.018

ELP4 isoform 3 (UniProt Q96EB1)
inactive: [1] 0.024 | [2] 0.022 | [3] -0.039 | [4] -0.018 | [5] -0.033 | [6] -0.018 | [7] -0.047 | [8] -0.03 | [9] 0.009 | [10] 0.01

EEF1A1P5 (UniProt Q5VTE0)
inactive: [1] 0.009 | [2] 0.032 | [3] 0.001 | [4] -0.031 | [5] -0.058 | [6] -0.005 | [7] -0.077 | [8] 0 | [9] 0.005 | [10] 0.031

ELP5 isoform 4 (UniProt Q8TE02)
inactive: [1] 0.049 | [2] 0.024 | [3] -0.002 | [4] -0.007 | [5] -0.005 | [6] 0.011 | [7] 0.115 | [8] -0.037 | [9] -0.055 | [10] -0.004

EIF3F (UniProt O00303)
inactive: [1] -0.052 | [2] -0.141 | [3] -0.014 | [4] 0.052 | [5] 0.002 | [6] -0.021 | [7] 0.118 | [8] 0.028 | [9] 0.064 | [10] -0.063

Quoted at random: two records from the list, in no set order.
EIF4H (UniProt Q15056)
inactive: [1] 0.002 | [2] -0.013 | [3] -0.072 | [4] -0.01 | [5] -0.009 | [6] -0.057 | [7] -0.009 | [8] 0.011 | [9] -0.034 | [10] 0.044

EIF3H (UniProt O15372)
inactive: [1] -0.027 | [2] -0.063 | [3] 0.005 | [4] 0.014 | [5] 0.01 | [6] -0.018 | [7] 0.078 | [8] -0.014 | [9] 0.061 | [10] -0.062

Next part:

EIF3E (UniProt P60228)
inactive: [1] -0.119 | [2] -0.272 | [3] 0.034 | [4] 0.13 | [5] 0.137 | [6] -0.03 | [7] 0.315 | [8] 0.127 | [9] 0.203 | [10] -0.1

EIF5A isoform 2 (UniProt P63241)
inactive: [1] 0.02 | [2] -0.1 | [3] -0.109 | [4] 0.025 | [5] 0 | [6] -0.123 | [7] -0.022 | [8] 0.063 | [9] 0.088 | [10] -0.06

EIF3K (UniProt Q9UBQ5)
inactive: [1] 0.058 | [2] -0.097 | [3] -0.041 | [4] -0.016 | [5] -0.039 | [6] 0.037 | [7] -0.013 | [8] 0.007 | [9] 0.014 | [10] -0.052

EIF2B1 (UniProt Q14232)
inactive: [1] 0.026 | [2] 0.016 | [3] -0.028 | [4] -0.02 | [5] 0.014 | [6] 0.002 | [7] 0.003 | [8] 0.002 | [9] -0.002 | [10] 0.002

ENSA isoform 3 (UniProt O43768)
inactive: [1] 0.009 | [2] 0.061 | [3] 0.012 | [4] -0.014 | [5] -0.029 | [6] -0.028 | [7] 0.003 | [8] -0.027 | [9] -0.006 | [10] 0.022

ELP4 (UniProt Q96EB1)
inactive: [1] 0.113 | [2] 0.041 | [3] -0.012 | [4] -0.033 | [5] -0.004 | [6] 0.014 | [7] -0.071 | [8] -0.057 | [9] -0.1 | [10] 0.035

Source: the supplement of paper PMC10849652
